Assay results published in patent US20160115467A1 (Biogen, published 2016).
No constants are given. Whether binding was seen depends on the method and setting. Some entries that bind do so weakly or less than the wild type.

Amino acid sequences for entries named in this document (tags omitted). A change or cut given only in a name is not applied to a line headed by its entry.
UniProt P08514: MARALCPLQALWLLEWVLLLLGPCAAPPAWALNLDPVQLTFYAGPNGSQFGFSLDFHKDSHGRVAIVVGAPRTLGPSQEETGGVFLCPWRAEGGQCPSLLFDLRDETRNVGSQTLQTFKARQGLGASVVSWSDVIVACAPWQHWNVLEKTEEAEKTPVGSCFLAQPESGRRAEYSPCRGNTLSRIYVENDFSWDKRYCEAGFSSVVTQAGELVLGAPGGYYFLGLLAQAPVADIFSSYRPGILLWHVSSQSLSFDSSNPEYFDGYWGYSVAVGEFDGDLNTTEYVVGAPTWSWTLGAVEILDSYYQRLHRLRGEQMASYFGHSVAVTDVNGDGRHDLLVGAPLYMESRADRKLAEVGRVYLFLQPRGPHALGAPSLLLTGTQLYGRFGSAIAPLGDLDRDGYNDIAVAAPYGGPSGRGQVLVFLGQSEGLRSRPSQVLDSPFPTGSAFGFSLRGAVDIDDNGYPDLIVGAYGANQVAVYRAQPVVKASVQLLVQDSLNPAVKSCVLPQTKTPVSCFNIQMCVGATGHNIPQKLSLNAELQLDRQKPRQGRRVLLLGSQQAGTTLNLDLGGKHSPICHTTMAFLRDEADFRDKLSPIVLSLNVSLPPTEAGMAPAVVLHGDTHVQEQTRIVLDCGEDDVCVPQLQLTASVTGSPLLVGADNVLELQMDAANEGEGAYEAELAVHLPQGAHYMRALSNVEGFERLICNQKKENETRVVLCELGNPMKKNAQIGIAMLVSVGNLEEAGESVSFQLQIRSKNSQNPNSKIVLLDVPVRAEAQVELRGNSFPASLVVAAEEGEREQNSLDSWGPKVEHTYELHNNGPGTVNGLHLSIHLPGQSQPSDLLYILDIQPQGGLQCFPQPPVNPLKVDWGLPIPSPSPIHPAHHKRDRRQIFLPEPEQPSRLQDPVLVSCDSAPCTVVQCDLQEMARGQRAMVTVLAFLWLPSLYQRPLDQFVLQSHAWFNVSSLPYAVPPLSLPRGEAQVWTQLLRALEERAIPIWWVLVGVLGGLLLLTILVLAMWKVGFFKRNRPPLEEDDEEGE

Target: T1, human GPIIb/IIIa on human platelets (human, UniProt P08514 32-1039; P05106 27-788)
T1 construct: Native receptor on gel-purified human platelets or platelets in diluted human whole blood; also called platelets in human whole blood
Experiment: flow cytometry, hybridoma supernatant on human platelets

B1: 34D10 (antibody, V domains shown)
VH: EVKLVESGGGLVKPGGSLKLSCAASGFTFSAYAMSWVRQTPEKRLEWVASISSGGTTYYPDSVKRRFTISRDNARNILYLQMSSLRSEDTAMYYCTRGGDYGYALDYWGQGTSVTVSS
VL: ENVLTQSPAIMSASLGEKVTMSCRASSSVNYMYWYQQKSDASPKLWIYYTSNLAPGVPARFSGSGSGNSYSLTISSMEGEDAATYYCQQFSSSPWTFGGGTKLEIKR
notes: Mouse monoclonal from BALB/c hybridoma, tested as hybridoma supernatant (detected with anti-mouse IgG); also called monoclonal antibody 34D10; 34D10 antibody
binding: binds

B2: 1H6 (antibody, V domains shown)
VH: QVQLQQSGAELVRPGTSVKVSCKASGYAFTNYLIEWVKQRPGQGLEWIGVINPGSGGTNYNEKFKGKATLTADKSSSTAYMHLSSLTSDDSAVYFCARGRYEWYFDVWGAGTTVTVSS
VL: DIQMTQTTSSLSASLGDRVTISCRASQDITNYLNWYQRKPDGTVKLLIYYTSRLHSGVPSRFSGSGSGTDYSLTISNLEQEDIATYFCQQGYTLPYTFGGGTKLEIKR
notes: Mouse monoclonal from BALB/c hybridoma, tested as hybridoma supernatant; also called 1H6 antibody
binding: binds
